Assay results published in patent US7790673.
No constants are given. Whether binding was seen depends on the method and setting. For part of these data: Binding seen in cells or lysates may run through a third protein. Some entries that bind do so weakly or less than the wild type.

Sequences of proteins named here, by UniProt entry; tags and fusion partners are left off. Residues count along the entry.
GST-Aβ1-42 fusion protein (P05067, residues 672-713): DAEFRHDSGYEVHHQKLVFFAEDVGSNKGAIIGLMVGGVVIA
Aβ1-40 synthetic peptide (P05067, residues 672-711): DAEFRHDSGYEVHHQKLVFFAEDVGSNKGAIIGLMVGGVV

Legend:
Aβ1-40 synthetic peptide [1] = biological target: Aβ1-40 synthetic peptide (UniProt P05067); assay: ELISA, Aβ1-40-coated wells, 0-37.5 nM cystatin C
Aβ1-40 synthetic peptide [2] = biological target: Aβ1-40 synthetic peptide (UniProt P05067); assay: ELISA, Aβ1-40-coated wells, 3 hours at 37° C.
Aβ1-42 synthetic peptide [3] = biological target: Aβ1-42 synthetic peptide (UniProt P05067); assay: ELISA, Aβ1-42-coated wells, 0-37.5 nM cystatin C
Aβ1-42 synthetic peptide [4] = biological target: Aβ1-42 synthetic peptide (UniProt P05067); assay: ELISA, Aβ1-42-coated wells, 3 hours at 37° C.
[5] = biological target: GST-Aβ1-42 fusion protein (UniProt P05067); assay: GST pull-down of HEK293 media proteins on GST-Aβ1-42, immunoblot with anti-cystatin C antibody
[6] = biological target: GST-Aβ1-42 fusion protein (UniProt P05067); assay: GST pull-down from HEK293 culture media, immunoblot with anti-cystatin C antibody

Measured: binding

B1: urinary cystatin C (Calbiochem Biosciences) (protein, human, UniProt P01034 27-146, looked up)
chain: SSPGKPPRLVGGPMDASVEEEGVRRALDFAVGEYNKASNDMYHSRALQVVRARKQIVAGVNYFLDVELGRTTCTKTQPNLDNCPFHDQPHLKRKAFCSFQIYAVPWQGTMTLSKSTCQDA
binds: Aβ1-40 synthetic peptide [1] | Aβ1-40 synthetic peptide [2] | Aβ1-42 synthetic peptide [3] | Aβ1-42 synthetic peptide [4]

B2: wild type human cystatin C (protein, UniProt P01034 27-146, looked up)
chain: SSPGKPPRLVGGPMDASVEEEGVRRALDFAVGEYNKASNDMYHSRALQVVRARKQIVAGVNYFLDVELGRTTCTKTQPNLDNCPFHDQPHLKRKAFCSFQIYAVPWQGTMTLSKSTCQDA
binds: [5] | [6]
